# Assay results published in paper PMC3179511.
# The chains behind the UniProt entries cited, without tags or fusion partners. Residues count along the entry.
# UniProt P0DMV8: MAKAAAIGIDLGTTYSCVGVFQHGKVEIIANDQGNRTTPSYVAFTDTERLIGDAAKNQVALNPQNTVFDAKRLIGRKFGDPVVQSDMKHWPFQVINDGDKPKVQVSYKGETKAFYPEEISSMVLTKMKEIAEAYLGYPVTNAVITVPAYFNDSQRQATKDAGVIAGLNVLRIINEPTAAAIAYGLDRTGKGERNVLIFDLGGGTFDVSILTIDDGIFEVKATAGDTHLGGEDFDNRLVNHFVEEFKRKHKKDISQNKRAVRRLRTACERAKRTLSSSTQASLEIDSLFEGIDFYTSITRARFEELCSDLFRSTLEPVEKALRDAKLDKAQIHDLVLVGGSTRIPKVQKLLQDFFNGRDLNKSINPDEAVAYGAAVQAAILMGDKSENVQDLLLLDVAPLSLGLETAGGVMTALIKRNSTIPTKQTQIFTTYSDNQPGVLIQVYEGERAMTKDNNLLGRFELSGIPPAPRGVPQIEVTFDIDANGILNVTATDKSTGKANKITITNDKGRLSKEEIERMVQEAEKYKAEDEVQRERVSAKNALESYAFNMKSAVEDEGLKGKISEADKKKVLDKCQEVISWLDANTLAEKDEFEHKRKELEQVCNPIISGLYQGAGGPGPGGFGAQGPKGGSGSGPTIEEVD
# UniProt P33426, residues 20-660: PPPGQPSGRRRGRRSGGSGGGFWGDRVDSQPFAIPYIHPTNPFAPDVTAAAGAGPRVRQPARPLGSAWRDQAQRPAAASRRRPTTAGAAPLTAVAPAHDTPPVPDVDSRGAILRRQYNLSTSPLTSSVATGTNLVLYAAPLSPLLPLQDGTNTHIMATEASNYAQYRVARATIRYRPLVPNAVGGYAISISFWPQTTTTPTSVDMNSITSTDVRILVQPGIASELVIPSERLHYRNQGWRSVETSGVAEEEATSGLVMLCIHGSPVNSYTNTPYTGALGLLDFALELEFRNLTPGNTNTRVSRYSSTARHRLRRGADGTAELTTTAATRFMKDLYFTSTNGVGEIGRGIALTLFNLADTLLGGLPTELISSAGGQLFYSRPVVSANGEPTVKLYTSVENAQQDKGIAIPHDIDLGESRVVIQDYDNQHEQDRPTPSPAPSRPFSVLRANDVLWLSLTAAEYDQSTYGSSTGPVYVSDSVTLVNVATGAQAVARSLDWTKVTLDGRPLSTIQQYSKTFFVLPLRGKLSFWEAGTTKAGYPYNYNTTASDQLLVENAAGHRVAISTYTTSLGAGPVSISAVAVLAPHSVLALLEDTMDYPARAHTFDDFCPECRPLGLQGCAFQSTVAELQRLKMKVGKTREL
# Results are given in words; binding and its absence hold for the method and conditions named. In cells and extracts the contact can be indirect. Some results given as binding are weak or reduced against the parent protein; the word gives no strength.
# Biological target: Hsp72 (HSPA1A), heat shock 70 kDa protein 1A (human (endogenous in HEK293)) (UniProt P0DMV8)
# Test: co-IP; 200 µg lysate of HEK293 cells transfected with pcDNA3.1-HEV ORF2, precipitated with 2 µg anti-Hsp72 antibody or control IgG, protein A/G agarose beads, washed with PBST; Western blot with anti-His-probe antibody
substance,measurement,value
"Hepatitis E virus (HEV) capsid protein open reading frame 2 (ORF2), His-tagged (from UniProt P33426 20-660)",binding,binds
